According to paper doi:10.1101/2023.07.11.548601:
Read-outs that look alike come from different tables or passages of the source. These are yes or no findings as the source states them, for the method shown. In cells and extracts the contact can be indirect. Some results given as binding are weak or reduced against the parent protein; the word gives no strength. For some of these results: Where a sequence is shown, tags or fusion partners need not be part of it.

Protein sequences, listed by entry. Tags and fused reporters are not part of them.
UniProt Q9D5V5: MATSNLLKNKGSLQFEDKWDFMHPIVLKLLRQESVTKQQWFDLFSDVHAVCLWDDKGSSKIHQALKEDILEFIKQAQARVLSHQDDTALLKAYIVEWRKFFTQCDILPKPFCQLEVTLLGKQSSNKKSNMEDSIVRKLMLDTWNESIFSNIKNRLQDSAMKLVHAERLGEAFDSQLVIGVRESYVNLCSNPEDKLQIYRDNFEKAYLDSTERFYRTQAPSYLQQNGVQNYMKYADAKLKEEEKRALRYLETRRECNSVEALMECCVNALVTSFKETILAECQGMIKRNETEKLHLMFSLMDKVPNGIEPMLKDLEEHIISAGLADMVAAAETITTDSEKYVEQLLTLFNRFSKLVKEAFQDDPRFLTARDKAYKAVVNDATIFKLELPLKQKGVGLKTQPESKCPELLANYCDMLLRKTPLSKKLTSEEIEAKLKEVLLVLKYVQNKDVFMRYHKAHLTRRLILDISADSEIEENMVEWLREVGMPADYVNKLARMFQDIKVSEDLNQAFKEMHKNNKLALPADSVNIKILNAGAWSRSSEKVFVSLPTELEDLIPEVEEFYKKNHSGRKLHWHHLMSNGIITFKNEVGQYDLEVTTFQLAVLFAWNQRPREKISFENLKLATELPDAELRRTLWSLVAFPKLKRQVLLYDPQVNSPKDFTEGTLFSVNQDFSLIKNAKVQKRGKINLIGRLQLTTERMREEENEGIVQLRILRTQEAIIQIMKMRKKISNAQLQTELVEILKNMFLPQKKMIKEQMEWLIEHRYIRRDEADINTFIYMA
UniProt Q9DCC8: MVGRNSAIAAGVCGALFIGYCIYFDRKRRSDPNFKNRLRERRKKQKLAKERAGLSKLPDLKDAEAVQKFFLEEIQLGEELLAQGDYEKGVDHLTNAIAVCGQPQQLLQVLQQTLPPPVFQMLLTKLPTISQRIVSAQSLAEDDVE

Tests used:
[1] = target: T1, biotinylated Avi-Ozz (recombinant Ozz fused to an Avi-tag) (UniProt Q9D0S4); assay: pull-down
T1 sequence (chain, biotin on the Avi-tag (biotinylated by the coexpressed bacterial ligase BirA)): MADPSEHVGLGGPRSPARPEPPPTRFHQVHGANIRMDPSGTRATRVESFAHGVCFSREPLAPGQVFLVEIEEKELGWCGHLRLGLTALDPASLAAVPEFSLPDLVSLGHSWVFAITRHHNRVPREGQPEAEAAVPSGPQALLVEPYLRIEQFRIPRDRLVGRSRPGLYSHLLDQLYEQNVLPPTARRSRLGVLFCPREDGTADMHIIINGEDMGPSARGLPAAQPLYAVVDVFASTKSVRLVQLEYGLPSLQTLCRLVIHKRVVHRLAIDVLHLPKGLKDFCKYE

[2] = target: T1, biotinylated Avi-Ozz (recombinant Ozz fused to an Avi-tag); assay: pull-down; remark: listed apart in the source
[3] = target: T2, N-terminal FLAG-tagged full-length Alix (UniProt Q9WU78); assay: co-IP
T2 sequence: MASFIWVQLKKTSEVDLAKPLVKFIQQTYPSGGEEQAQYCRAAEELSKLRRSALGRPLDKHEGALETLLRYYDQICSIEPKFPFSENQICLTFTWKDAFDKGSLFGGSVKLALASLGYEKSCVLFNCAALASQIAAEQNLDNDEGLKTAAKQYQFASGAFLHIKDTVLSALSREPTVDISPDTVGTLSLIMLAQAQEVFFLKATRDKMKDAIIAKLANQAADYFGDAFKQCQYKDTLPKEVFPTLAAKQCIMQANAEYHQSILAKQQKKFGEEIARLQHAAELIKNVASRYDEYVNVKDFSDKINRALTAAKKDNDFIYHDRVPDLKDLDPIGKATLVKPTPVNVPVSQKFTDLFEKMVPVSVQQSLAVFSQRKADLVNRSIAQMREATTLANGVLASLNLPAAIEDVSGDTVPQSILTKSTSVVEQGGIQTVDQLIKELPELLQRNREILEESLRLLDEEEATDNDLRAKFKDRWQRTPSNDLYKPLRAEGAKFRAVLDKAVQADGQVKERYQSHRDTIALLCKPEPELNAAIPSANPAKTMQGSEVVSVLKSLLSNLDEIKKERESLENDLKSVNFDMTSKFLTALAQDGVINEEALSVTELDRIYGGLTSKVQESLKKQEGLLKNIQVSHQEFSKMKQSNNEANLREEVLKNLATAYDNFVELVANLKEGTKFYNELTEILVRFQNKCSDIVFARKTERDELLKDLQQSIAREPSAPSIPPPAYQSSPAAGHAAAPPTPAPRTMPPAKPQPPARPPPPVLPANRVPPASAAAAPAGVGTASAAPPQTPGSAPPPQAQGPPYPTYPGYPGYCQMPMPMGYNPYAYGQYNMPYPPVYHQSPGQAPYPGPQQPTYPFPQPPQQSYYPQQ

[4] = target: T2, N-terminal FLAG-tagged full-length Alix; assay: co-IP; remark: listed apart in the source
[5] = target: T3, Slc25A4 (mouse (endogenous in C2C12 and in mouse muscle)) (UniProt P48962); assay: co-IP
T3 sequence: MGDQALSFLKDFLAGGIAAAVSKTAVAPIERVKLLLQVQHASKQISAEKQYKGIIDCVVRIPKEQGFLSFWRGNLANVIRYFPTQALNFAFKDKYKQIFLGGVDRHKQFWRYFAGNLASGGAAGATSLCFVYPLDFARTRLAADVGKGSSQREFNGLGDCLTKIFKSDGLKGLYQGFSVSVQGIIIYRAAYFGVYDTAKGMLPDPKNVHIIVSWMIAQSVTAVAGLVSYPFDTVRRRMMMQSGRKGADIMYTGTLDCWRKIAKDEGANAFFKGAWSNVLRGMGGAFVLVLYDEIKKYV

Molecule	binding [1]	binding [2]	binding [3]	binding [4]	binding [5]
Cul5 (from UniProt Q9D5V5 1-780)	binds	binds	–	–	–
Tom20 (from UniProt Q9DCC8 1-145)	binds	–	binds	–	–
Slc25A4 (protein, UniProt P48962 1-298) MGDQALSFLKDFLAGGIAAAVSKTAVAPIERVKLLLQVQHASKQISAEKQYKGIIDCVVRIPKEQGFLSFWRGNLANVIRYFPTQALNFAFKDKYKQIFLGGVDRHKQFWRYFAGNLASGGAAGATSLCFVYPLDFARTRLAADVGKGSSQREFNGLGDCLTKIFKSDGLKGLYQGFSVSVQGIIIYRAAYFGVYDTAKGMLPDPKNVHIIVSWMIAQSVTAVAGLVSYPFDTVRRRMMMQSGRKGADIMYTGTLDCWRKIAKDEGANAFFKGAWSNVLRGMGGAFVLVLYDEIKKYV	binds	–	–	binds	–
Ozz (endogenous) (protein, UniProt Q9D0S4 1-285) MADPSEHVGLGGPRSPARPEPPPTRFHQVHGANIRMDPSGTRATRVESFAHGVCFSREPLAPGQVFLVEIEEKELGWCGHLRLGLTALDPASLAAVPEFSLPDLVSLGHSWVFAITRHHNRVPREGQPEAEAAVPSGPQALLVEPYLRIEQFRIPRDRLVGRSRPGLYSHLLDQLYEQNVLPPTARRSRLGVLFCPREDGTADMHIIINGEDMGPSARGLPAAQPLYAVVDVFASTKSVRLVQLEYGLPSLQTLCRLVIHKRVVHRLAIDVLHLPKGLKDFCKYE	–	–	–	–	binds
